Experimental data taken from the supplement of paper PMC10849652.
The other results are listed elsewhere or left out.

Protein sequences, listed by entry. Tags and fused reporters are not part of them. Lines headed by an entry give the natural chain unless they say otherwise; changes in a name come on top.
UniProt Q9Y262, whole entry, looked up: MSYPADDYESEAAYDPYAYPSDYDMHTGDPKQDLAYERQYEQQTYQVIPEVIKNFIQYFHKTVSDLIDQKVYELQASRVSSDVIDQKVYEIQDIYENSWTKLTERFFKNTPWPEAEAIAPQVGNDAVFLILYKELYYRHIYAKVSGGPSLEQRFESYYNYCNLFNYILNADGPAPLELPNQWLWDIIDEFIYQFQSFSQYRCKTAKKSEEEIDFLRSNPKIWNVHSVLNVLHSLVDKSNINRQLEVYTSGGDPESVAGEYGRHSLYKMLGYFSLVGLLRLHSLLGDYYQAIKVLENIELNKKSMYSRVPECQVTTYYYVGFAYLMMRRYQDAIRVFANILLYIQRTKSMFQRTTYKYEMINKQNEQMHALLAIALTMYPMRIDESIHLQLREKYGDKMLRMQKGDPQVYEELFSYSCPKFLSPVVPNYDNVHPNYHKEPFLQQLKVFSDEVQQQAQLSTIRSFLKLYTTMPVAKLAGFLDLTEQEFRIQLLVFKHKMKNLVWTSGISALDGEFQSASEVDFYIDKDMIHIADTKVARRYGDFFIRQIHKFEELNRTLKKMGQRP
UniProt Q32P44: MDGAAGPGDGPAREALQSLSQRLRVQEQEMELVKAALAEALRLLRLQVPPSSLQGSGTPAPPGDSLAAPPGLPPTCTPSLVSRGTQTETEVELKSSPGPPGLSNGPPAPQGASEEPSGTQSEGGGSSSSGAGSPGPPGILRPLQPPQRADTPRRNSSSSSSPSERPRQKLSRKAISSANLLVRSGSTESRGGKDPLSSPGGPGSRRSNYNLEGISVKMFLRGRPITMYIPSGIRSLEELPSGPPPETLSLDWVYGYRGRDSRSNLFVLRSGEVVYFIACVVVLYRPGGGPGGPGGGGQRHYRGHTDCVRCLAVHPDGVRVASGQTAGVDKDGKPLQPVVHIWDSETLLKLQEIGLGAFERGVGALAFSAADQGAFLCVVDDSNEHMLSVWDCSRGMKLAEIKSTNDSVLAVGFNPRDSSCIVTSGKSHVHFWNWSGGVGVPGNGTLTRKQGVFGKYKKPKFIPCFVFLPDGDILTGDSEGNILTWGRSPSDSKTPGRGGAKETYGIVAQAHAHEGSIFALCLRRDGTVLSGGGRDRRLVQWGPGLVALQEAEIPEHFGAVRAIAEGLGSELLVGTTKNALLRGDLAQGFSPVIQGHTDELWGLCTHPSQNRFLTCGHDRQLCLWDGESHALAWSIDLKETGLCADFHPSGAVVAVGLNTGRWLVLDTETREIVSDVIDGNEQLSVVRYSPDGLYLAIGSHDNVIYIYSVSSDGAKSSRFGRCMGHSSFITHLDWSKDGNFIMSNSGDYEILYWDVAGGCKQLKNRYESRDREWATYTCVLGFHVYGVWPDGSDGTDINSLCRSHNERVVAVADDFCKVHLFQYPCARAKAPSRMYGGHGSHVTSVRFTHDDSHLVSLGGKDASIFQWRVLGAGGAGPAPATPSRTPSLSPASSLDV
UniProt Q9NYP7: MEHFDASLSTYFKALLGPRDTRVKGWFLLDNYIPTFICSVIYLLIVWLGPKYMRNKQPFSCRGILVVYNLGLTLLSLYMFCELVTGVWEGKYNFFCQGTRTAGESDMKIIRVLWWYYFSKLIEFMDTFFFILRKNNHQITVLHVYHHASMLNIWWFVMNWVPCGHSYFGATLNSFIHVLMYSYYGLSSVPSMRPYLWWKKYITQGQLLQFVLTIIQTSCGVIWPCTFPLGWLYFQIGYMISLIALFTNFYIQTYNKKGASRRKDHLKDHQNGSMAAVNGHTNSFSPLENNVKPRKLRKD
UniProt Q03468, whole entry, looked up: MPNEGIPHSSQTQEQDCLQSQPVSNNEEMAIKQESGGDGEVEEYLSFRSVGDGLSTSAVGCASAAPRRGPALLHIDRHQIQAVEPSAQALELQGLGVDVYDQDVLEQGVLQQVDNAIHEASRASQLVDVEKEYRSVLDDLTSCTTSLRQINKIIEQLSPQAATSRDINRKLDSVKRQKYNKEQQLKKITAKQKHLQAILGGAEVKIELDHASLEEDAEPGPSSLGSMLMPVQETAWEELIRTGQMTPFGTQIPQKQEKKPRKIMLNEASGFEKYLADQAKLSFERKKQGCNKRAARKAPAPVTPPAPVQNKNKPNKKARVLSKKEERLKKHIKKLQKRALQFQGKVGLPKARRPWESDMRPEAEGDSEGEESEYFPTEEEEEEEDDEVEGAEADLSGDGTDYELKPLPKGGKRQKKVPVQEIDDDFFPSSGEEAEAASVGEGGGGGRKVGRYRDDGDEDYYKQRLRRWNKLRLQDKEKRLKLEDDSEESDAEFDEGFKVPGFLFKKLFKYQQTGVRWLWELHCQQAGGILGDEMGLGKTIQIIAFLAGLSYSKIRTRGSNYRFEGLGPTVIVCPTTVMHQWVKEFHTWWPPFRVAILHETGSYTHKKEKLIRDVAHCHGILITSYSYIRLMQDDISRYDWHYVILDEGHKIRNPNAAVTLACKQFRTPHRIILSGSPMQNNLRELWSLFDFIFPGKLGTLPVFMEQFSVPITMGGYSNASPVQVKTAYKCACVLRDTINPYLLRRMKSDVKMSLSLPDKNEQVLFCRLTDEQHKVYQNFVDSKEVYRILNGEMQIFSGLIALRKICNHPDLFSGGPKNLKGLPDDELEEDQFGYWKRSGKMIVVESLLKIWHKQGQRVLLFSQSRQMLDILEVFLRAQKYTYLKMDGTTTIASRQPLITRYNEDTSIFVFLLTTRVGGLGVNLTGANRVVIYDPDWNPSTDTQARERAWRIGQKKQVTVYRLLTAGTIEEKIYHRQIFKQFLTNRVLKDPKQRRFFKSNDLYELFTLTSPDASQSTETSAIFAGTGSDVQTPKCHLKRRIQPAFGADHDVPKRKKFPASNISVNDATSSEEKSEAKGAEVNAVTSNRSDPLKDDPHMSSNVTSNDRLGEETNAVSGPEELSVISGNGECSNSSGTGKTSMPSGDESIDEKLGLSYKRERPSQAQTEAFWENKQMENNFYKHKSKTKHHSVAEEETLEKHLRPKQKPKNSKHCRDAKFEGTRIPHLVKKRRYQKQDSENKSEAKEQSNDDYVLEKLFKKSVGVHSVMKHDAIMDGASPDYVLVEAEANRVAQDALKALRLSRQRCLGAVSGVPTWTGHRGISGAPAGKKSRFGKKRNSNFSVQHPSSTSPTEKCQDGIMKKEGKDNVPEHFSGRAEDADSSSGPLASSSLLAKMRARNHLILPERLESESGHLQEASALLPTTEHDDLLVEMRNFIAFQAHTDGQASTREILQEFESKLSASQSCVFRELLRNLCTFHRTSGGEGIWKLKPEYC
UniProt Q8NFI3: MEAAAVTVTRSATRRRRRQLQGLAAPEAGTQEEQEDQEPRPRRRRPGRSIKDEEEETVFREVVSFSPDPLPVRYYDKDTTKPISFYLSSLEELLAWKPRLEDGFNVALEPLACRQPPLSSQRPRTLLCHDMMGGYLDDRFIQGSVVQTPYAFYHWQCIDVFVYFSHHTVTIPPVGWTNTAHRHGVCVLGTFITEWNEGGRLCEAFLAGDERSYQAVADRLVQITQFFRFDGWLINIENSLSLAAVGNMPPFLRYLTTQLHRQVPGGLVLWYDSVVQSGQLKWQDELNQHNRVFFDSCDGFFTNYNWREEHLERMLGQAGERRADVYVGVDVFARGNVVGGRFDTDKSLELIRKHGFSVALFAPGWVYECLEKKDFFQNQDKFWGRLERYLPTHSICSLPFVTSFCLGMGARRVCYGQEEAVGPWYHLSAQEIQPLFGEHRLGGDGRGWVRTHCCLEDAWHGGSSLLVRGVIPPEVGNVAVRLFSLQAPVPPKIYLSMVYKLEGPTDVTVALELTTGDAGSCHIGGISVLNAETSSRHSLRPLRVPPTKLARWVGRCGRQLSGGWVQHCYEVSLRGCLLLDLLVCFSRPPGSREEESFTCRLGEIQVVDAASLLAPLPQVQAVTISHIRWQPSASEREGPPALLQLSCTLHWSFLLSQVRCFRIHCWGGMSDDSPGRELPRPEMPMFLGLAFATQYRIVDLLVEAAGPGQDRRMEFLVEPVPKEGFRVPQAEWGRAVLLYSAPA
UniProt Q14241: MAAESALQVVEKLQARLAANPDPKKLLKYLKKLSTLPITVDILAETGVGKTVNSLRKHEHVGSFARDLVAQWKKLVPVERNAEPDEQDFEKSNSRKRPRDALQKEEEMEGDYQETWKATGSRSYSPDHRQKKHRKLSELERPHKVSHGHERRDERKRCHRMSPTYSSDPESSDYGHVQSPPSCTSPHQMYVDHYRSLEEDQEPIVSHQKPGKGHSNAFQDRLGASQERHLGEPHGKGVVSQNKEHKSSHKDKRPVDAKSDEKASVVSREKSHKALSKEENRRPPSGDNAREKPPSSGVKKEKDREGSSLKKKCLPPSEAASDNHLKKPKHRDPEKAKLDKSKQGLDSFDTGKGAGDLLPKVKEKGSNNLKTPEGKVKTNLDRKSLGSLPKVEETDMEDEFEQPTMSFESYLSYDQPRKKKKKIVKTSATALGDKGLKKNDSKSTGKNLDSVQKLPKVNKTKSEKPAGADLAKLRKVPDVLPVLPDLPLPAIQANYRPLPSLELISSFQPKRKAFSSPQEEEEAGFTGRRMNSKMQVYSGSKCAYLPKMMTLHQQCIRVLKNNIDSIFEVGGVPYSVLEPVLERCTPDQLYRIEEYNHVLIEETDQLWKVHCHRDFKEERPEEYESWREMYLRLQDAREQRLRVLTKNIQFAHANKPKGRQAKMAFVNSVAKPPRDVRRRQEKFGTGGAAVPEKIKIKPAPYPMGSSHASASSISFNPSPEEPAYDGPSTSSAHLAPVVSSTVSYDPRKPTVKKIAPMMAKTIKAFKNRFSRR
UniProt P54852: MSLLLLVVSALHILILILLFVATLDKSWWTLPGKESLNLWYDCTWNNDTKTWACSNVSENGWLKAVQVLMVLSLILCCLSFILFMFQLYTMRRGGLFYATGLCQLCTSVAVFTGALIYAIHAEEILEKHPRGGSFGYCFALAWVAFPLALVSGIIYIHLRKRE
UniProt Q13541: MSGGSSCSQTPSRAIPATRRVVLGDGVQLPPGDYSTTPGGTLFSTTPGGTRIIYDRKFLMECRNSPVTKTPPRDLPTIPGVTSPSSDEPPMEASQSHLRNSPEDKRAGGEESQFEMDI
UniProt Q8IZ81: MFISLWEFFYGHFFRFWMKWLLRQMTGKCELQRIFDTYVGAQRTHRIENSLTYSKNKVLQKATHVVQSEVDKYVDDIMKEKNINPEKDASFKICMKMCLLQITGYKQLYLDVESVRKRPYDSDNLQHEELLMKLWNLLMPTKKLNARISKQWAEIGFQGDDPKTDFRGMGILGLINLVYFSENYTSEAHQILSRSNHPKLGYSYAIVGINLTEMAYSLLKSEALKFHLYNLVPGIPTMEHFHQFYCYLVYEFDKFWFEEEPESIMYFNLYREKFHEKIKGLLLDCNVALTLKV
UniProt P60842, whole entry, looked up: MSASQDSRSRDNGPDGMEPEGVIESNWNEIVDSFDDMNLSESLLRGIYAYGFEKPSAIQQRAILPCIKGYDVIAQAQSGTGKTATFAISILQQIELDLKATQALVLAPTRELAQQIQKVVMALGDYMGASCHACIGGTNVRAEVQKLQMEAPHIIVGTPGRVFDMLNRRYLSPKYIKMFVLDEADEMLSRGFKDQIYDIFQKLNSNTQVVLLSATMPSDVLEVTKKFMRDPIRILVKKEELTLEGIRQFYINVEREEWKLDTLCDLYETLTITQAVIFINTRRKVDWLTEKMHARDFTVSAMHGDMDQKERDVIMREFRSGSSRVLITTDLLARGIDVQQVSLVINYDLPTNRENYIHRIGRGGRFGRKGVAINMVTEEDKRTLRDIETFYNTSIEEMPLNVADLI
UniProt Q0PNE2: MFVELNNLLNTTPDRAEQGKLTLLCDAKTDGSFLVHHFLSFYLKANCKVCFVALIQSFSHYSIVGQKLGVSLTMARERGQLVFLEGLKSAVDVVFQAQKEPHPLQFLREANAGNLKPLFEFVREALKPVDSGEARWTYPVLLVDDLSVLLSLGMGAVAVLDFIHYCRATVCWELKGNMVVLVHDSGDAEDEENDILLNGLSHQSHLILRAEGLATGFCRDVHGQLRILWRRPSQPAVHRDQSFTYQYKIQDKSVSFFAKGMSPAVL
UniProt Q9NPA0: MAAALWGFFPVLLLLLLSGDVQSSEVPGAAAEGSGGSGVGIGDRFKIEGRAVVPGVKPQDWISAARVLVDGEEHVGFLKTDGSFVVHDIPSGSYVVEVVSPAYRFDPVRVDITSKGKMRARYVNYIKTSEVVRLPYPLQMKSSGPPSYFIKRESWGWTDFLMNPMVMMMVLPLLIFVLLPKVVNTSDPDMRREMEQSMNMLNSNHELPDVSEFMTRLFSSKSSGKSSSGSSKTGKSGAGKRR

How the values were obtained:
Assay in all cases: log2 fold change, soluble protein after heating vs DMSO (PISA); higher = thermal stabilisation; K562 lysate, 10 uM; active = over 0.2 and 3.5 SD of the protein, either way, in both replicates (recomputed)
[1] = compound: C1=CC=C(C=C1)[C@H](COC2=CC3=C(C=C2)NC(=O)N3)NC(=O)C4=CC=CN(C4=O)CC5=CC(=C(C=C5)F)F
Outline: (§1)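 The values are log-two fold changes in thermal stability compared with solvent controls and come from duplicates. They were obtained by TMTpro 16plex LC-MS/MS, with channel sums equalised, on the supernatant after 21,000xg for 90 min. That supernatant came from crude K562 extract at 1 mg/mL protein treated with 10 μM compound for 30 min, heated for 3 min across 48°C-58°C, pooled and brought to 0.5% NP-40 at 4°C.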

[2] = compound: CC1=C(SC2=C1C(=N[C@H](C3=NN=C(N32)C)CC(=O)N)C4=CC=C(C=C4)Cl)C
Outline: as §1

[3] = compound: CC1=C2C(=CC=C1)N=C(N(C2=O)C3=CC=CC=C3C)CN4C=NC5=C(N=CN=C54)N
Outline: as §1

[4] = compound: Cc1sc2c(c1C)C(c1ccc(Cl)cc1)=N[C@@H](CC(=O)OC(C)(C)C)c1nnc(C)n1-2
Outline: as §1

[5] = compound: c1ccc([C@@H]2C[C@H]2NC2CCNCC2)cc1
Outline: as §1

Measured: log2 fold change

EIF3L (UniProt Q9Y262)
inactive: [1] 0.019 | [2] 0.013 | [3] 0.003 | [4] -0.002 | [5] 0.045

EML3 (UniProt Q32P44)
inactive: [1] 0.007 | [2] -0.037 | [3] -0.026 | [4] -0.025 | [5] 0.001

ELOVL5 isoform 2 (UniProt Q9NYP7)
inactive: [1] -0.05 | [2] -0.003 | [3] 0.074 | [4] -0.122 | [5] 0.016

ERCC6 (UniProt Q03468)
inactive: [1] -0.093 | [2] 0.026 | [3] 0.088 | [4] -0.09 | [5] 0.014

ERCC3 (UniProt P19447)
inactive: [1] 0.014 | [2] -0.035 | [3] -0.001 | [4] -0.004 | [5] 0.037

ERAP2 (UniProt Q6P179)
inactive: [1] -0.097 | [2] 0.076

Two entries picked at random from those above, as already listed:
ERCC6 (UniProt Q03468)
inactive: [1] -0.093 | [2] 0.026 | [3] 0.088 | [4] -0.09 | [5] 0.014

ELOVL5 isoform 2 (UniProt Q9NYP7)
inactive: [1] -0.05 | [2] -0.003 | [3] 0.074 | [4] -0.122 | [5] 0.016

Remaining list, next part:

ENGASE (UniProt Q8NFI3)
inactive: [1] 0.042 | [2] 0.017 | [3] 0.038 | [4] 0.017 | [5] -0.023

ELOA (UniProt Q14241)
inactive: [1] 0.077 | [2] -0.021 | [3] -0.052 | [4] -0.039 | [5] -0.092

EPCAM (UniProt P16422)
inactive: [1] 0.021 | [2] 0.021 | [3] -0.124 | [4] -0.124 | [5] -0.026

EMP3 (UniProt P54852)
inactive: [1] 0.026 | [2] -0.028 | [3] -0.038 | [4] -0.113 | [5] -0.345

EIF4H isoform 2 (UniProt Q15056)
inactive: [1] 0.072 | [2] -0.183 | [3] -0.088 | [4] 0.132

EIF2D (UniProt P41214)
inactive: [1] -0.007 | [2] -0.012 | [3] 0.044 | [4] 0.003 | [5] 0.049

EPB41 (UniProt P11171)
inactive: [1] -0.004 | [2] -0.021 | [3] -0.023 | [4] 0.027 | [5] 0.032

EIF4EBP1 (UniProt Q13541)
inactive: [1] -0.027 | [2] 0.028 | [3] -0.081 | [4] -0.032 | [5] 0.084

ENO2 (UniProt P09104)
inactive: [1] 0.019 | [2] -0.122 | [3] 0.037 | [4] -0.009 | [5] -0.153

ERAL1 (UniProt O75616)
inactive: [1] -0.048 | [2] 0.033 | [3] 0.007 | [4] 0.009 | [5] 0.075

ELP3 (UniProt Q9H9T3)
inactive: [1] 0.017 | [2] 0.046 | [3] -0.002 | [4] 0.008 | [5] 0.032

ELMOD2 (UniProt Q8IZ81)
inactive: [1] 0.011 | [2] 0.03 | [3] 0.034 | [4] -0.137 | [5] 0.068

EIF3C (UniProt Q99613)
inactive: [1] -0.027 | [2] 0.015 | [3] 0.013 | [4] 0.005 | [5] 0.016

EIF4A1 (UniProt P60842)
inactive: [1] 0.03 | [2] 0.046 | [3] -0.001 | [4] -0.022 | [5] 0.004

EPC2 (UniProt Q52LR7)
inactive: [1] -0.152 | [2] 0.087 | [3] 0.026 | [4] 0.111

ELP6 (UniProt Q0PNE2)
inactive: [1] 0.014 | [2] 0.01 | [3] 0.024 | [4] -0.03 | [5] -0.048

ELF2 (UniProt Q15723)
inactive: [1] -0.162 | [2] -0.074 | [3] 0.044 | [4] -0.005 | [5] 0.013

EMC7 (UniProt Q9NPA0)
inactive: [1] 0.01 | [2] 0.02 | [3] 0.024 | [4] 0.005 | [5] -0.141

EIF4G3, A0A0U1RQK7
inactive: [1] -0.05 | [2] 0.01 | [3] 0.042 | [4] -0.008 | [5] 0.004
